This is one part of the list. The main result of the screen is listed elsewhere. These columns were measured beside it and carry no call. The list favours compounds with an active or inconclusive main result. The note in brackets gives the kind of curve behind each potency; many fits are weak.
Experiment: IkB Signaling
Conditions: ABC-DLBCL IkBa-CBG/CBR dual luciferase ratio (green luciferase fused to IkBa over red control in OCI-Ly3 lymphoma cells), 4 h
How it was run: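 In this assay, an IκBα–CBG68 fusion accumulates when IKK-driven degradation is blocked; native CBR normalizes for cell number. OCI-Ly3 cells were treated 4 h with compound and doxycycline, then green and red light read after Chroma-Glo addition.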

[1] = measured here: control luc red channel unless noted

CN(C)c1ccc(C(CNC(=O)c2ccccc2Cl)N2CCc3ccccc32)cc1 (stereo not drawn)
AC50 [1]: 1.58 µM [falling, full curve]

Cc1ccc2oc(-c3cc(NC(=O)Cc4ccccc4)ccc3Cl)nc2c1
AC50 [1]: 3.98 µM [falling, full curve]

O=C(COc1ccc(Cl)cc1)Nc1ccc(O)c(-c2nc3ccccc3s2)c1
AC50 [1]: 39.8 µM [falling, single point]

CC(=O)Nc1ccccc1OCC(=O)c1cc(C)n(Cc2cccs2)c1C
AC50 [1]: 5.01 µM [falling, partial curve]

CCOC(=O)c1cnn(-c2ncnc3c2oc2ccccc23)c1N
AC50 [1]: 0.398 µM [rising, full curve, poor fit]

Cc1cc(Br)ccc1NC(=O)COc1cc(=O)n(C)c2ccccc12
AC50 [1]: 3.16 µM [rising, partial curve]

Cc1cc2ccccc2n1CCNC(=O)c1ccccc1F
AC50 [1]: 25.1 µM [falling, single point]

c1ccc2sc(SN3CCOCC3)nc2c1
AC50 [1]: 3.98 µM [rising, partial curve]

Cc1cc(-n2c(C)cc(C(=O)CSc3nnnn3-c3ccccc3)c2C)no1
AC50 [1]: 12.6 µM [falling, partial curve]

O=C(NCC(c1ccc2c(c1)OCO2)N1CCN(c2ccccc2)CC1)C(=O)Nc1ccccc1 (stereo not drawn)
AC50 [1]: 3.98 µM [falling, partial curve, poor fit]

COC(=O)c1ccc(C2C3=C(Nc4nnnn42)c2ccccc2OC3)cc1 (stereo not drawn)
AC50 [1]: 25.1 µM [falling, single point]

Cc1ccc2nc(NC(=O)CCNS(=O)(=O)c3ccc(Br)s3)sc2c1
AC50 [1]: 20 µM [falling, partial curve]

COc1ccc(C(=O)Nc2ccccc2)cc1S(=O)(=O)Nc1ccc(Br)cc1
AC50 [1]: 3.16 µM [falling, full curve]

Cn1c(-c2ccc(F)cc2)cnc1SCC(=O)Nc1ccccc1N1CCOCC1
AC50 [1]: 0.01 µM [falling, full curve]

O=C(OCc1cc(=O)n2nc(C3CC3)sc2n1)c1ccc(NC(=O)c2ccccc2Cl)cc1
AC50 [1]: 31.6 µM [falling, partial curve]

COC(=O)CSc1nnc(-c2cccs2)n1-c1ccc(Cl)cc1
AC50 [1]: 3.98 µM [falling, full curve]

O=C(Nc1ccc2nc(SCC(=O)N3CCCc4ccccc43)sc2c1)c1ccccc1F
AC50 [1]: 12.6 µM [falling, partial curve]

Cc1ccc(NC(=O)CCn2nc(-c3ccccc3)c3ccccc3c2=O)c(C)c1
AC50 [1]: 25.1 µM [falling, single point]

CCc1ccc(C2=C(C)C(N3CCC(C(=O)Nc4ccc(F)cc4)CC3)=NS2(=O)=O)cc1
AC50 [1]: 6.31 µM [falling, single point]

Cc1cccc2cc(CN(C(=O)c3cccc(Cl)c3)c3ccccc3)c(=O)[nH]c12
AC50 [1]: 3.16 µM [falling, partial curve]

CCN(C(=O)CSc1nc(-c2ccccc2)no1)c1cccc(C)c1
AC50 [1]: 1.26 µM [falling, full curve]

COc1ccccc1Nc1nn2c(=O)c3ccc(C(=O)NC4CCC(C)CC4)cc3nc2s1 (stereo not drawn)
AC50 [1]: 25.1 µM [falling, single point]

COc1ccccc1C(=O)Nc1cccc(OCc2cc(=O)n3c4c(sc3n2)CCCC4)c1
AC50 [1]: 15.8 µM [falling, partial curve]

COc1ccc(NC(=O)C2(S(=O)(=O)c3ccc(C)cc3)CC2)c(OC)c1
AC50 [1]: 0.0631 µM [rising, full curve]

COc1ccc(CCNC(=O)C2CCN(Cc3nc(-c4cccc(Cl)c4)oc3C)CC2)cc1OC
AC50 [1]: 31.6 µM [falling, partial curve]

CCOc1ccc(NC(c2ccc(Cl)cc2)c2nnc(-c3cccc(F)c3)o2)cc1 (stereo not drawn)
AC50 [1]: 31.6 µM [falling, single point]

Cc1ccc(CN(C(=O)COc2cccc(Cl)c2)c2ccccn2)o1
AC50 [1]: 39.8 µM [falling, single point]

CCSc1ncc(Cl)c(C(=O)Nc2ccc(S(=O)(=O)N3CCCCC3CC)cc2)n1 (stereo not drawn)
AC50 [1]: 2 µM [falling, single point]

COc1cc(O)ccc1-c1nc2ccc(Br)cn2c1Nc1ccccc1C
AC50 [1]: 15.8 µM [falling, partial curve]

O=C(CSc1nccn1Cc1ccc(F)cc1)NC1CCCC1
AC50 [1]: 20 µM [falling, single point]

COc1ccccc1OCCn1cc(C(=O)c2ccco2)c2ccccc21
AC50 (measured here: IkB-luc green channel): 39.8 µM [falling, single point]
AC50 (measured here: control luc red channel): 39.8 µM [falling, single point]

CCOC(=O)c1ccc(NC(=O)C2CCN(S(=O)(=O)Cc3ccccc3)CC2)cc1
AC50 [1]: 15.8 µM [falling, partial curve]

— PubChem BioAssay AID445 (National Center for Advancing Translational Sciences (NCATS), 2006)
